# Reference: the supplement of paper PMC11732987, “Enantioselective OTUD7B fragment discovery through chemoproteomics screening and high-throughput optimisation” (Communications Chemistry, 2025)
# Protein sequences, listed by entry. Tags and fused reporters are not part of them. Lines headed by an entry give the natural chain unless they say otherwise; changes in a name come on top. Residues count along the entry.
# UniProt Q9UK45: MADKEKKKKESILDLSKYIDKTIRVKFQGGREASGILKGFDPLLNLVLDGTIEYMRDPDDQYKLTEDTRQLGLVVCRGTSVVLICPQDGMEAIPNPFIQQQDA
# UniProt Q9NQ29: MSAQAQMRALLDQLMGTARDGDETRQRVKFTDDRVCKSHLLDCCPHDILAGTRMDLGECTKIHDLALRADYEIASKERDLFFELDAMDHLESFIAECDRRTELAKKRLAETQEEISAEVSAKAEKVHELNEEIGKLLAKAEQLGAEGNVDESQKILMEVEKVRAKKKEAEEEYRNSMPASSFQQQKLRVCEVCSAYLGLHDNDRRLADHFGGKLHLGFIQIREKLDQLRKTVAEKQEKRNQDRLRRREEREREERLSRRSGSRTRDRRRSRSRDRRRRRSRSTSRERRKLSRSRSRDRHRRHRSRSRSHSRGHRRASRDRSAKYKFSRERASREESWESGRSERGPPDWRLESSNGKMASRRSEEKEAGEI
# UniProt Q96L34: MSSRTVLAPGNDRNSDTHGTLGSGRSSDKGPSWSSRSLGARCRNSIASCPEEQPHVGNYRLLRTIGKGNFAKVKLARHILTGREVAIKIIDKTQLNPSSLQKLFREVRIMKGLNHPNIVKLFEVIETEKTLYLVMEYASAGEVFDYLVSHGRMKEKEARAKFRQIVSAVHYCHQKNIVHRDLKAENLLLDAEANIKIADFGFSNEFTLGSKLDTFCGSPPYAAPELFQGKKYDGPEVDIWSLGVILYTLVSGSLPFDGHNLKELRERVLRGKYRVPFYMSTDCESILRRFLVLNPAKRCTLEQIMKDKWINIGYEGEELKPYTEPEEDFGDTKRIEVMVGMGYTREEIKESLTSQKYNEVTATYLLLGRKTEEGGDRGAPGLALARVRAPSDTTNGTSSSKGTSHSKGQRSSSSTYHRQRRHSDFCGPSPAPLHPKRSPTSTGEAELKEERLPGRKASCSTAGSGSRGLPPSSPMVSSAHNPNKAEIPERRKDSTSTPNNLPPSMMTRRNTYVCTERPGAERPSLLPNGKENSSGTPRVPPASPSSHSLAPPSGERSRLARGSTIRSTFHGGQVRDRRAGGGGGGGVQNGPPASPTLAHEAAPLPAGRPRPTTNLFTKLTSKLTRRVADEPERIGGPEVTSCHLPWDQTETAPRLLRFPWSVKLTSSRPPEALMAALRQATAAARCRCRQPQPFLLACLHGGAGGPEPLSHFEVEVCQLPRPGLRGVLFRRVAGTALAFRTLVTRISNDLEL
# UniProt Q7L590: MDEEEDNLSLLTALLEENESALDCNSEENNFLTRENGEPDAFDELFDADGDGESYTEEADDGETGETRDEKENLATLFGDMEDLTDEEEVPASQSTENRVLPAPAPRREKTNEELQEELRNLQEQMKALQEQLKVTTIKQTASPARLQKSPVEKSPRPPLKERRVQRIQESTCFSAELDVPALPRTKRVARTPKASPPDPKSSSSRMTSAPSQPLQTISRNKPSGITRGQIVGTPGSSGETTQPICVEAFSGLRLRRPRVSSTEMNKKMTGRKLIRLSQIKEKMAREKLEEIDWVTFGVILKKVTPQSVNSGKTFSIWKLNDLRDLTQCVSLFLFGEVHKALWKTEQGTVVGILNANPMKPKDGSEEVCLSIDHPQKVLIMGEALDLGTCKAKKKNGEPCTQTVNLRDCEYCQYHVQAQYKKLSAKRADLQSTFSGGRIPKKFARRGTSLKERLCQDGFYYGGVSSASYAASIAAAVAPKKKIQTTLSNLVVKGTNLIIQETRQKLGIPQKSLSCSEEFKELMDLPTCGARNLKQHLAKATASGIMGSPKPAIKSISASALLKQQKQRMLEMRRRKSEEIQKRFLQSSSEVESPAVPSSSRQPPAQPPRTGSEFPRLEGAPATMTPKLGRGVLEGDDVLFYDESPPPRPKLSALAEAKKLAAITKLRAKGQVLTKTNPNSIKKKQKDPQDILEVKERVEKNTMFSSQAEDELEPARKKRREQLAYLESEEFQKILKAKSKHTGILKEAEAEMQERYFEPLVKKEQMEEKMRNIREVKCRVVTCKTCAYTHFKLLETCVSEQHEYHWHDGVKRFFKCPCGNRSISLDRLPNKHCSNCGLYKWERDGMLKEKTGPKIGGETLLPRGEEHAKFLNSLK
# UniProt P33993: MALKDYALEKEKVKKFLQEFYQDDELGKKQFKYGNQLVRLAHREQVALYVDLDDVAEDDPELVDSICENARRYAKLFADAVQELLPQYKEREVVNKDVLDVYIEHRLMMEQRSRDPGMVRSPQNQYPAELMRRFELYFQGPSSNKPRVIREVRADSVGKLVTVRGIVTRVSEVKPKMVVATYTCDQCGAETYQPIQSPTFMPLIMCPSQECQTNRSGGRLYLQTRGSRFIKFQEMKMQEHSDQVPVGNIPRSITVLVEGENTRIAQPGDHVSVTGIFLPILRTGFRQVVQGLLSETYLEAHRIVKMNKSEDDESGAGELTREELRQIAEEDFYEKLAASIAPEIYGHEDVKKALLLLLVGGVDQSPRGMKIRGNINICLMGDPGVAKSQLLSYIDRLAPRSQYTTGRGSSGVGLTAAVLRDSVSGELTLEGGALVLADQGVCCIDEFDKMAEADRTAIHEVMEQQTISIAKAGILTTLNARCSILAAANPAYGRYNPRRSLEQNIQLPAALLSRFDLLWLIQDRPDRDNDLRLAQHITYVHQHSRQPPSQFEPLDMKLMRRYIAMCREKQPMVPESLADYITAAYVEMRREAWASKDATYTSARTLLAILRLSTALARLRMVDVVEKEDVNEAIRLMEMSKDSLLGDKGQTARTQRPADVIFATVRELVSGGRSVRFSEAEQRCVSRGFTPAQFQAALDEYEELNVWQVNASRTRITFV
# UniProt O14733, 113-136: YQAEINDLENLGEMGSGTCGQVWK
# UniProt O94822: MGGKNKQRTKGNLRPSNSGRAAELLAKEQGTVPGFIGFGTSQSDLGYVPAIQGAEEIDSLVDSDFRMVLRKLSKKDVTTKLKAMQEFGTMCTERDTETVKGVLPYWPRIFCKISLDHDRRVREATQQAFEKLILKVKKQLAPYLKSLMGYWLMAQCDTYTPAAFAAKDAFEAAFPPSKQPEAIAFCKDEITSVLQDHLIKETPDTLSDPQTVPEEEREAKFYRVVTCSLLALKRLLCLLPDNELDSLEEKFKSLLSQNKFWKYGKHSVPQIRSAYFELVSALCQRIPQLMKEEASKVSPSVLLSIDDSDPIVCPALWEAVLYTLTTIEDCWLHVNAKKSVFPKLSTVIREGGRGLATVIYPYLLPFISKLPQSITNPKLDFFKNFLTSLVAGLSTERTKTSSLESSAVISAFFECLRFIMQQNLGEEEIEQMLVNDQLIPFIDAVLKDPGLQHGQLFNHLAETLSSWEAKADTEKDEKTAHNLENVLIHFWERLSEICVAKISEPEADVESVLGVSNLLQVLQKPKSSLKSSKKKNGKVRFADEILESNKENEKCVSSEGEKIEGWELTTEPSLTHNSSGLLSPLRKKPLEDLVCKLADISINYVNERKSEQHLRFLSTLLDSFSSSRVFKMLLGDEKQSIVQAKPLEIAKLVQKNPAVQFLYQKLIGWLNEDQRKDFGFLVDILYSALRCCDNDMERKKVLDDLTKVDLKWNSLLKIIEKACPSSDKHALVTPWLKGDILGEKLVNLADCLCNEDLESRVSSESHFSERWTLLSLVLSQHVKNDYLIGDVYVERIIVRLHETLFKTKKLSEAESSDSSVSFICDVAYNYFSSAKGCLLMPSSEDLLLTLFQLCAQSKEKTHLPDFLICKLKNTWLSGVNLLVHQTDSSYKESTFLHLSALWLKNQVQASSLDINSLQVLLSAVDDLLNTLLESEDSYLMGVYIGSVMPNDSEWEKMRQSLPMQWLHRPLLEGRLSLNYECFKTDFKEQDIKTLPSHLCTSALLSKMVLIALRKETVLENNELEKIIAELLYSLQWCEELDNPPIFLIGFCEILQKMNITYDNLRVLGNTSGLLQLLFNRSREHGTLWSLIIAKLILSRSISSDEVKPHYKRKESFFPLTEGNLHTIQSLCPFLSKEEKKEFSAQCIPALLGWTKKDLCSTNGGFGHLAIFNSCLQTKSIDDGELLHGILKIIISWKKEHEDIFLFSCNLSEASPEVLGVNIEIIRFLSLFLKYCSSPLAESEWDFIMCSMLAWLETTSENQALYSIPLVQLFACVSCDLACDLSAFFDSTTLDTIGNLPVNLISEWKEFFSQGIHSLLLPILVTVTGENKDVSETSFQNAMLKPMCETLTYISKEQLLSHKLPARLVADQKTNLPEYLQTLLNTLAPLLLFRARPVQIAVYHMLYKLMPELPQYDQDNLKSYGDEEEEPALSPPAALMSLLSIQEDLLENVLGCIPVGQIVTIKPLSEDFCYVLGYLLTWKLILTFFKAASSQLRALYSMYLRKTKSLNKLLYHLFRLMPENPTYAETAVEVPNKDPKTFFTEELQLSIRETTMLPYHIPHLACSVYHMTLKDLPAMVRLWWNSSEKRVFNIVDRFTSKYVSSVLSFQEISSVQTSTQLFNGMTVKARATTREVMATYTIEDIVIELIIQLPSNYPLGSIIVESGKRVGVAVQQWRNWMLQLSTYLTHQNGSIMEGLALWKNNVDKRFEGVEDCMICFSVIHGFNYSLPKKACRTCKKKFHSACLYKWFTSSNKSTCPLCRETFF
# UniProt Q5TCQ9: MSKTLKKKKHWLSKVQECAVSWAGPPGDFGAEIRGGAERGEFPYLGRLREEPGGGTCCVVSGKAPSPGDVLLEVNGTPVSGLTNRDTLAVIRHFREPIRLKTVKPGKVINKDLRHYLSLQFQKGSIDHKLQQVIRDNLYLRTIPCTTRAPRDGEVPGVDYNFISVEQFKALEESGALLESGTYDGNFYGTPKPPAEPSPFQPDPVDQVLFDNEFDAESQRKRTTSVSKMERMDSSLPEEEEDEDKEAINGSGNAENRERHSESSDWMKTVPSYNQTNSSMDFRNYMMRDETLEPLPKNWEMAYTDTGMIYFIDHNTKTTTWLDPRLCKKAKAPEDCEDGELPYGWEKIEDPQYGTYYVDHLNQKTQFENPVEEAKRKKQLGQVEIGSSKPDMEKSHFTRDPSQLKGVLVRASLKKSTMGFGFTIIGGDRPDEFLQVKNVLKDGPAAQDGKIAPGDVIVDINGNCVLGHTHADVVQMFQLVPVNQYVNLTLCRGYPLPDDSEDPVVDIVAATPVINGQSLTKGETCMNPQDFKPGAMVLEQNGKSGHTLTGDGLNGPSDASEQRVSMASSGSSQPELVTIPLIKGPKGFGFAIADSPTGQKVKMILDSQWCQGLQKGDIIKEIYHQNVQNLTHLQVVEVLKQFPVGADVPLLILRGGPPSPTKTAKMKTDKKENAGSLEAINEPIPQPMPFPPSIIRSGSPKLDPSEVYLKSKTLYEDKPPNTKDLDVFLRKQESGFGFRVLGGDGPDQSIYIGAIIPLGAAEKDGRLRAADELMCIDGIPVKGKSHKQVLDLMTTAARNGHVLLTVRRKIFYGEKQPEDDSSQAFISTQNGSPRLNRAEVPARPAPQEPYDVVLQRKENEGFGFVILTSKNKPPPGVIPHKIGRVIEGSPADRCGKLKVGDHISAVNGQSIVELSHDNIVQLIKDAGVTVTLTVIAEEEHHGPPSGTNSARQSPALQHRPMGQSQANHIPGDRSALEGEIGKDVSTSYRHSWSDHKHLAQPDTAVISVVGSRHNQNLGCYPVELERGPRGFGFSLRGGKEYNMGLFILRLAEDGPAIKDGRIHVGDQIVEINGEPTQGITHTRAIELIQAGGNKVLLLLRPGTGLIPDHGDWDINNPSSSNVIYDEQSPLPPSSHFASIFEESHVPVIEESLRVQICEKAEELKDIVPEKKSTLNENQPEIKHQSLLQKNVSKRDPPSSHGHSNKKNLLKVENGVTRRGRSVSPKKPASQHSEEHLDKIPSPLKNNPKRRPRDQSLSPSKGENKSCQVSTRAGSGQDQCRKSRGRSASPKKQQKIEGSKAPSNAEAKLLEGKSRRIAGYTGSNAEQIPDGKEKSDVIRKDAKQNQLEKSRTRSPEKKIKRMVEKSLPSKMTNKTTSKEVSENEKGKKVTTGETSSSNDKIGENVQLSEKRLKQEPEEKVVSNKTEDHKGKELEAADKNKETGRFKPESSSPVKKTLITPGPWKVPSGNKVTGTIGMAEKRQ
# UniProt Q9BX40: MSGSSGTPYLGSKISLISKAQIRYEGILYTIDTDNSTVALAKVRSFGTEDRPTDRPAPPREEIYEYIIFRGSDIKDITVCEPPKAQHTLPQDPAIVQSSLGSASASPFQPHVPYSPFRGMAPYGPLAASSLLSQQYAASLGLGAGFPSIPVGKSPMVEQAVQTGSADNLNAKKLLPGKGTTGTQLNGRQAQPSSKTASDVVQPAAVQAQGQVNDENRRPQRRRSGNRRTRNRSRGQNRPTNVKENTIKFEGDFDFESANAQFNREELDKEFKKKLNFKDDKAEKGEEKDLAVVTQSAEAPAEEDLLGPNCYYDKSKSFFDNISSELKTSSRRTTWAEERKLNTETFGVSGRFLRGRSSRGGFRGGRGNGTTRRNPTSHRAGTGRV
# The list shows a part of the results. The data scatter; read single values as rough.
# Compound: ClCC(=O)N[C@@H]1CCCc2ccccc12
# Assay: log2 mean competition ratio of IA-DTB cysteine labelling (DMSO/compound) (log2 ratio); higher = stronger cysteine engagement by compound
# Settings: 200 µM; treatment time: 4 h; cell line lysate: HEK293T
# Description: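 IA-DTB competitive cysteine chemoproteomics in HEK293T RIPA lysate. Lysates were treated with compound 29 or 30 at 50 or 200 µM for 4 h, then IA-DTB (500 µM, 1 h), trypsin-digested, NeutrAvidin-enriched and analysed by diaPASEF. Competition ratio = intensity DMSO / intensity compound (n=4 treated, n=64 DMSO); binding: mean log2 CR ≥ 1 and p ≤ 0.05 plus QC filters. Target is the cysteine site.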
row,Target,log2 mean competition ratio
1,LSM7 C76 (UniProt Q9UK45),0.176
2,MARF1 C654 (UniProt Q9Y4F3),0.0908
3,LUC7L C59 (UniProt Q9NQ29),0.053
4,MAN2B2 C288 (UniProt Q9Y2E5),-0.211
5,MARK4 C49 (UniProt Q96L34),0.199
6,MCM10 C786 (UniProt Q7L590),0.0484
7,MCM7 C378 (UniProt P33993),-0.188
8,LYN C203 (UniProt P07948),0.203
9,MCM4 C509 (UniProt P33991),-0.0861
10,MAP2K7 C131 (UniProt O14733),-0.0339
11,LZTS2 C74 (UniProt Q9BRK4),0.0316
12,MARK2 C166,0.06
13,LTN1 C595 (UniProt O94822),0.235
14,MCM3AP C1285 (UniProt O60318),0.0854
15,MAGI3 C1266 (UniProt Q5TCQ9),0.063
16,LRRC59 C48 (UniProt Q96AG4),0.024
17,LSM14B C80 (UniProt Q9BX40),-0.072

# 2 entries from above, set out differently.
row	Target	log2 mean competition ratio
4	MAN2B2 C288 (UniProt Q9Y2E5)	-0.211
5	MARK4 C49 (UniProt Q96L34)	0.199
